These results are taken from PMC5179076.

The data set relates to RNA polymerase RpoD (sigma70) holoenzyme (Escherichia coli K-12 W3110 (type-A)). Briefly: EMSA. The note with it: 0-1000 nM RNAP, affinity almost the same as riRNA promoter probe; EMSA: 50 mM Tris-HCl pH 7.8 (37 C), 50 mM NaCl, 3 mM Mg acetate, 0.1 mM EDTA, 0.1 mM DTT, BSA, 37 C 30 min, probe 10 nM (Methods) or 50 nM; native protein; probe letters rebuilt from the primers and the genome. On the technique in general: In EMSA bound probe runs differently from free probe, usually more slowly.

The exact form of at least one protein or probe is not confirmed.

Consider “CATCCTTATTTTTCGCCCGCATTGTAACGAAAACGTTTGCGCAACGCTCGCGAATTTTTCTCTTTCAATGGTGATCACAATTTTGACTGTGGTTACCGTGGGCAAAATACAGAAATTACATTGATGATTGTGGATAACTCTGTGCGTAAAAAGGTATAAAGCGGGCTTTTGCTGGGGAATGCAGCAGTCAGTCATTTTTCTGCAATTTTTCTATTGCGGCCTGCGGAGAACTCCCTATAATGCGCCTCCATCGACACGGCGGATGTGAATCACTTCACACAAACAGCCGGTTCGGTTGAAGAGAAAAATCCTGAAATTCAGGGTTGACTCTGAAAGAGGAAAGCGTAATATACGCCACCTCGCGACAGTGCGCTAAAGCGCGTCGCAACTGCTCTTTAACAATTTATCAGACAATCTGTGTGGGCACTCGAAGATACGGATTCTTAACGTCGCAAGACGAAAAATGAATACCAAGTCTCAAGAGTGAACACGTAATTCATTACGAAGTTTAATTCTTTGAGCATCAAACTTTTAAATTGAAGAGTTTGATCATGGCT (double strand) [Probe G1 (rrnD major promoter P1-P2)]”, for which the binding result is listed as “binds”.
